Source: PubChem BioAssay AID330 (DTP/NCI, 2004)
The list shows only some results of the screen, not a fair sample: it is rich in T/C values a quarter to a half above the control, in often repeated tests (any T/C) and in doses without a T/C. Other doses and runs of a compound stand elsewhere. T/C: endpoint of the treated group in % of that of the vehicle group. Some entries give survivors of the animals treated and no T/C: the source files T/C as zero there, which appears to mark a toxic dose or a test without result, not a measured value. Some doses without a T/C left all or most animals alive at the check, yet need not have been tolerated: the source hardly ever lists a survival T/C far under the control, and the zero likely stands for such cases as well. Counts of survivors are from the toxicity check (mostly the fifth day) where no day follows; animals may have died later. Schedule codes are those of the source, read here as Q, the interval in days (D) or hours (H), X, the number of doses. Where survival is the endpoint, the PubChem record calls one and a half times the control and up active, and a quarter to a half above the control has no call in these data; cut-offs in other NCI protocols can differ. Some doses were run more than once; their values stand side by side, smallest first.

Test system: P388 leukemia ip, CD2F1 mice, survival T/C
Assay: NCI In Vivo Anticancer Drug Screen. Data for tumor model P388 Leukemia (intraperitoneal) in CD2F1 (CDF1) mice
Conditions: T/C endpoint: median survival time, higher T/C = longer survival
[1] = dose: 40.0 mg/kg/injection, schedule: Q04DX002 (ip), vehicle: saline with Tween-80
[2] = dose: 100.0 mg/kg/injection, schedule: Q04DX002 (ip), vehicle: saline with Tween-80
[3] = dose: 120.0 mg/kg/injection, schedule: Q01DX005 (ip), vehicle: saline with Tween-80
[4] = dose: 240.0 mg/kg/injection, schedule: Q01DX005 (ip), vehicle: saline with Tween-80

Structure (SMILES): O=C1c2cccc3cc([N+](=O)[O-])cc(c23)C(=O)N1CCNCCNCCNCCN1C(=O)c2cccc3cc([N+](=O)[O-])cc(c23)C1=O
- T/C (dose: 10.0 mg/kg/injection, schedule: Q04DX002 (ip), vehicle: saline with Tween-80): 127 % of control
- T/C (dose: 20.0 mg/kg/injection, schedule: Q04DX002 (ip), vehicle: saline with Tween-80): 128 and 134 % of control
- T/C [1]: 129 % of control
- survivor count [1]: 0 of 6
- survivor count (dose: 80.0 mg/kg/injection, schedule: Q04DX002 (ip), vehicle: saline with Tween-80): 0 of 6
- survivor count (dose: 89.5 mg/kg/injection, schedule: Q04DX002 (ip), vehicle: saline with Tween-80): 0 of 6
- survivor count (dose: 179.0 mg/kg/injection, schedule: Q04DX002 (ip), vehicle: saline with Tween-80): 0 of 6
- survivor count (dose: 358.0 mg/kg/injection, schedule: Q04DX002 (ip), vehicle: saline with Tween-80): 0 of 6

Structure (SMILES): CC(=O)OC12CC[N+]3(C)CCCCC3C1=Nc1ccccc12 (centres undefined)
- survivor count (dose: 50.0 mg/kg/injection, schedule: Q01DX009 (ip), vehicle: saline): 0 of 6

Structure (SMILES): O=C(Oc1ccc[nH]c1=O)c1ccccc1
- survivor count (dose: 150.0 mg/kg/injection, schedule: Q01DX009 (ip), vehicle: saline): 4 of 6

Structure (SMILES): NC(=O)c1c(Cl)nc2sccn12
- survivor count (dose: 200.0 mg/kg/injection, schedule: Q01DX001 (ip), vehicle: saline with Tween-80): 0 of 6
- survivor count (dose: 400.0 mg/kg/injection, schedule: Q01DX001 (ip), vehicle: saline with Tween-80): 0 of 6

Structure (SMILES): C1CCC(C2CCCC[N-]2)[N-]C1.[Cl][Ru+2][Cl] (centres undefined)
- survivor count (dose: 60.0 mg/kg/injection, schedule: Q01DX005 (ip), vehicle: saline): 1 of 6
- survivor count (dose: 120.0 mg/kg/injection, schedule: Q01DX005 (ip), vehicle: saline): 0 of 6
- survivor count (dose: 240.0 mg/kg/injection, schedule: Q01DX005 (ip), vehicle: saline): 0 of 6

Structure (SMILES): CC(=O)Nc1ccc(/C=C\c2ccnc3ccccc23)cc1
- T/C (dose: 50.0 mg/kg/injection, schedule: Q04DX002 (ip), vehicle: saline with Tween-80): 129 % of control
- survivor count [2]: 6 of 6

Structure (SMILES): O=C(O)C(S)Cc1cnc[nH]1 (centres undefined)
- survivor count (dose: 400.0 mg/kg/injection, schedule: Q04DX002 (ip), vehicle: saline): 6 of 6

Structure (SMILES): CC1=C(C2CO2)C(=O)C(C)=C(C2CO2)C1=O (centres undefined)
- survivor count (dose: 25.0 mg/kg/injection, schedule: Q04DX002 (ip), vehicle: Klucel (hydroxypropylcellulose) (HPC)): 1 of 6
- survivor count (dose: 50.0 mg/kg/injection, schedule: Q04DX002 (ip), vehicle: Klucel (hydroxypropylcellulose) (HPC)): 0 of 6
- survivor count (dose: 100.0 mg/kg/injection, schedule: Q04DX002 (ip), vehicle: Klucel (hydroxypropylcellulose) (HPC)): 0 of 6
- survivor count (dose: 200.0 mg/kg/injection, schedule: Q04DX002 (ip), vehicle: Klucel (hydroxypropylcellulose) (HPC)): 0 of 6
- survivor count (dose: 400.0 mg/kg/injection, schedule: Q04DX002 (ip), vehicle: Klucel (hydroxypropylcellulose) (HPC)): 0 of 6

Structure (SMILES): O=C(NCc1ccc(S(=O)(=O)F)cc1)Oc1ccc([N+](=O)[O-])cc1
- survivor count [3]: 3 of 6
- survivor count [4]: 0 of 6

Structure (SMILES): CCCCC(=O)c1c(O)c2ccccc2oc1=O
- survivor count [3]: 1 of 6
- survivor count [4]: 0 of 6

Structure (SMILES): COc1cccc(C(=O)CCN(C)C)c1
- survivor count (dose: 200.0 mg/kg/injection, schedule: Q01DX009 (ip), vehicle: saline): 1 of 6

Structure (SMILES): C/C=C(\NN=NC)c1ccccc1
- T/C [2]: 140 % of control
- survivor count (dose: 400.0 mg/kg/injection, schedule: Q04DX002 (ip), vehicle: saline with Tween-80): 1 of 5

Structure (SMILES): COc1cccc(C=O)c1OC(=O)Oc1ccccc1
- T/C (dose: 12.5 mg/kg/injection, schedule: Q01DX009 (ip), vehicle: distilled water + Tween-80): 131 % of control
- survivor count (dose: 100.0 mg/kg/injection, schedule: Q01DX009 (ip), vehicle: distilled water + Tween-80): 2 of 6
- survivor count (dose: 200.0 mg/kg/injection, schedule: Q01DX009 (ip), vehicle: distilled water + Tween-80): 0 of 6
- survivor count (dose: 400.0 mg/kg/injection, schedule: Q01DX009 (ip), vehicle: distilled water + Tween-80): 0 of 6
